Test results reported in article PMC7413564, “Phase separation of Arabidopsis EMB1579 controls transcription, mRNA splicing, and development” (PLoS Biology, 2020).
These are yes or no findings as the source states them, for the method shown. Binding seen in cells or lysates may run through a third protein. Some entries that bind do so weakly or less than the wild type. Where a sequence is shown, tags or fusion partners need not be part of it.

T1: EMB1579-NLuc (Arabidopsis thaliana) (UniProt F4IS91)
T1 sequence: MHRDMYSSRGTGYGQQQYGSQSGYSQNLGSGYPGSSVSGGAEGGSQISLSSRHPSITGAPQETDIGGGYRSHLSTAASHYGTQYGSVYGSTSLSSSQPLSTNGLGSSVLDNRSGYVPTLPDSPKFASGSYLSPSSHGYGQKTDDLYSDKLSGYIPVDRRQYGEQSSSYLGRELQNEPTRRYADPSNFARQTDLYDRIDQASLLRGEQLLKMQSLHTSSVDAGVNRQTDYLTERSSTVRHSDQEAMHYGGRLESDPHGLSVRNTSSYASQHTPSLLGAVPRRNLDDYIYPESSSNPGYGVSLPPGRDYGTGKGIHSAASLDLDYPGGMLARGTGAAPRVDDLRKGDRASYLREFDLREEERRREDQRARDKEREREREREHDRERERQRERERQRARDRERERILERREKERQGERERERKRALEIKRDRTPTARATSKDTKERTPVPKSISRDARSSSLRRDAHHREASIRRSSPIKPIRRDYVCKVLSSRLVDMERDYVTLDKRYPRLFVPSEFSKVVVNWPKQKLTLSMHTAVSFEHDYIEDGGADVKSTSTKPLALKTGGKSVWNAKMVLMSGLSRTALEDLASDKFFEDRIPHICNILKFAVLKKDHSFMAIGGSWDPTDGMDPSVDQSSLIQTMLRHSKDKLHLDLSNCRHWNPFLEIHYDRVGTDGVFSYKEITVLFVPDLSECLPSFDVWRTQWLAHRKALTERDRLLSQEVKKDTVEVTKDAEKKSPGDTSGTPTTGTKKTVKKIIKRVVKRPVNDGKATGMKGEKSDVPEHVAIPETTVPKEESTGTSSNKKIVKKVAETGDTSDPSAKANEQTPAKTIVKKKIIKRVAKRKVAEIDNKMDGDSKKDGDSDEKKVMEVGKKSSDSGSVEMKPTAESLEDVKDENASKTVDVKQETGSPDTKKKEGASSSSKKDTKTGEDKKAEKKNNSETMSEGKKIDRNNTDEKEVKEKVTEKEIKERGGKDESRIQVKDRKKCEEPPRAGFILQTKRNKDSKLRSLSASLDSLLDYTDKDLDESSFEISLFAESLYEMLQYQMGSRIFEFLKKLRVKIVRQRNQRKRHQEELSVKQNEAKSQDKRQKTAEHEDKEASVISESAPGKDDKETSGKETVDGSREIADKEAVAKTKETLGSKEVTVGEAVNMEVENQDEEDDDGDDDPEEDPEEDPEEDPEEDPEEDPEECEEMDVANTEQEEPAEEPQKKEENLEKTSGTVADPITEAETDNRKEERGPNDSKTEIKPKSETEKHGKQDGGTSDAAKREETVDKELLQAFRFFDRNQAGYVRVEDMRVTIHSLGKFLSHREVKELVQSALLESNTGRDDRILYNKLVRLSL

B1: mCherry-DDB1B (natural protein, Arabidopsis thaliana, UniProt O49552 1-1088, looked up)
chain: MSVWNYAVTAQKPTCVTHSCVGNFTSPQELNLIVAKSTRIEIHLLSPQGLQTILDVPLYGRIATMELFRPHGEAQDFLFVATERYKFCVLQWDYESSELITRAMGDVSDRIGRPTDNGQIGIIDPDCRVIGLHLYDGLFKVIPFDNKGQLKEAFNIRLEELQVLDIKFLYGCTKPTIAVLYQDNKDARHVKTYEVSLKDKNFVEGPWSQNNLDNGADLLIPVPSPLCGVLIIGEETIVYCSANAFKAIPIRPSITKAYGRVDLDGSRYLLGDHAGLIHLLVITHEKEKVTGLKIELLGETSIASSISYLDNAVVFVGSSYGDSQLIKLNLQPDAKGSYVEILEKYVNLGPIVDFCVVDLERQGQGQVVTCSGAYKDGSLRIVRNGIGINEQASVELQGIKGMWSLKSSIDEAFDTFLVVSFISETRILAMNIEDELEETEIEGFLSEVQTLFCHDAVYNQLVQVTSNSVRLVSSTTRELRNKWDAPAGFSVNVATANASQVLLATGGGHLVYLEIGDGTLTEVKHVLLEYEVSCLDINPIGDNPNYSQLAAVGMWTDISVRIFVLPDLTLITKEELGGEIIPRSVLLCAFEGISYLLCALGDGHLLNFQLDTSCGKLRDRKKVSLGTRPITLRTFSSKSATHVFAASDRPAVIYSNNKKLLYSNVNLKEVSHMCPFNSAAFPDSLAIAREGELTIGTIDDIQKLHIRTIPIGEHARRICHQEQTRTFAISCLRNEPSAEESESHFVRLLDAQSFEFLSSYPLDAFECGCSILSCSFTDDKNVYYCVGTAYVLPEENEPTKGRILVFIVEEGRLQLITEKETKGAVYSLNAFNGKLLASINQKIQLYKWMLRDDGTRELQSECGHHGHILALYVQTRGDFIAVGDLMKSISLLIYKHEEGAIEERARDYNANWMTAVEILNDDIYLGTDNCFNIFTVKKNNEGATDEERARMEVVGEYHIGEFVNRFRHGSLVMKLPDSDIGQIPTVIFGTVSGMIGVIASLPQEQYAFLEKLQTSLRKVIKGVGGLSHEQWRSFNNEKRTAEAKGYLDGDLIESFLDLSRGKMEEISKGMDVQVEELCKRVEELTRLH
notes: DDB1B, Arabidopsis; amplified with DDB1B-EcoRI-F/DDB1B-SalI-R2 from pFGC5941-DDB1B-RFP and moved into pColdI behind mCherry; source: E. coli BL21 (DE3) (pColdI-mCherry-DDB1B), purified (Ni-NTA); not shown: mCherry, N-terminal, kept
B2: CLuc-CUL4 (protein, UniProt Q8LGH4 1-792)
chain: MSLPTKRSTFSAASASDDSSYSSPPMKKAKNDLHHSPQHPNTADKVVGFHMEEDPTPAAANLSRKKATLPQPTKKFVIKLNKAKPTLPTNFEENTWEKLQSAIRAIFLKKKISFDLESLYQAVDNLCLHKLDGKLYDQIEKECEEHISAALQSLVGQNTDLTVFLSRVEKCWQDFCDQMLMIRSIALTLDRKYVIQNPNVRSLWEMGLQLFRKHLSLAPEVEQRTVKGLLSMIEKERLAEAVNRTLLSHLLKMFTALGIYMESFEKPFLEGTSEFYAAEGMKYMQQSDVPEYLKHVEGRLHEENERCILYIDAVTRKPLITTVERQLLERHILVVLEKGFTTLMDGRRTEDLQRMQTLFSRVNALESLRQALSSYVRKTGQKIVMDEEKDKDMVQSLLDFKASLDIIWEESFYKNESFGNTIKDSFEHLINLRQNRPAELIAKFLDEKLRAGNKGTSEEELESVLEKVLVLFRFIQGKDVFEAFYKKDLAKRLLLGKSASIDAEKSMISKLKTECGSQFTNKLEGMFKDIELSKEINESFKQSSQARTKLPSGIEMSVHVLTTGYWPTYPPMDVKLPHELNVYQDIFKEFYLSKYSGRRLMWQNSLGHCVLKADFSKGKKELAVSLFQAVVLMLFNDAMKLSFEDIKDSTSIEDKELRRTLQSLACGKVRVLQKNPKGRDVEDGDEFEFNDEFAAPLYRIKVNAIQMKETVEENTSTTERVFQDRQYQIDAAIVRIMKTRKVLSHTLLITELFQQLKFPIKPADLKKRIESLIDREYLEREKSNPQIYNYLA
B3: CLuc-CDKC;2 (protein, UniProt Q8W4P1 1-513)
chain: MAAAAFGQLNLEEPPPIWGSRSVDCFEKLEQIGEGTYGQVYMAKEIKTGEIVALKKIRMDNEREGFPITAIREIKILKKLHHENVIHLKEIVTSPGRDRDDQGKPDNNKYKGGIYMVFEYMDHDLTGLADRPGLRFTVPQIKCYMKQLLTGLHYCHVNQVLHRDIKGSNLLIDNEGNLKLADFGLARSYSHDHTGNLTNRVITLWYRPPELLLGATKYGPAIDMWSVGCIFAELLNGKPILPGKTENEQLNKIYELCGSPDESNWPGVSKMPWYNQMKSSRPLKRRVREIYRHFDRHALELLEKMLVLDPSQRICAKDALDAEYFWTDPLPCDPKSLPTYESSHEFQTKKKRQQMRHNEEAAKKQKLQHPQQQHSRLPPQQHGVGQSHAAPLWPAGPNHPMNNNAPPPQIPAGGHYYGGKPRGGAPVPNRYPPSGNQTGGYNNQSRGGYSSGAYPPQGRGAPYGAGPRGPSGGYGVGPPNYSQGGGQYGGSGGSGRGQNPMGGARNQQYGWQP
B4: CLuc-SKIP (protein, UniProt O80653 1-613)
chain: MKSLNDLPAPKSTTTTYYDHSNDAWFKNRVTESETVKSSSIKFKVVPAYLNRQGLRPKNPEDFGDGGAFPEIHLPQYPLLMGKNKSNKPGAKTLPVTVDAQGNVVFDAIVRQNENSRKIVYSQHKDIIPKFLKNEGDLGTVVDEEEELQKEIQETAEETKAAIEKIVNVRLSAAQPSNIARQSGDSQYIKYKPSQQSSAFNSGAKERIIRMVEMPVDPLDPPKFKHKRVPRASGSPPVPVMHSPPRPVTVKDQQDWKIPPCISNWKNPKGYTIPLDKRLAADGRGLQDVQINDNFAKLSEALYVAEQKAREAVSMRSKVQKEMVMKDKERKEQELRALAQKARSERTGAAMSMPVSSDRGRSESVDPRGDYDNYDQDRGREREREEPQETREEREKRIQREKIREERRRERERERRLDAKDAAMGKKSKITRDRDRDISEKVALGMASTGGKGGGEVMYDQRLFNQDKGMDSGFAADDQYNLYDKGLFTAQPTLSTLYKPKKDNDEEMYGNADEQLDKIKNTERFKPDKAFTGASERVGSKRDRPVEFEKEEEQDPFGLEKWVSDLKKGKKPLDKIGSGGTMRASGGGGSSSRDDDHGGSGRTKINFERSDRR
B5: CLuc-UAP56A (protein, UniProt Q56XG6 1-427)
chain: MGDARDNEAYEEELLDYEEEDEKVPDSGNKVNGEAVKKGYVGIHSSGFRDFLLKPELLRAIVDSGFEHPSEVQHECIPQAILGMDVICQAKSGMGKTAVFVLSTLQQIEPSPGQVSALVLCHTRELAYQICNEFVRFSTYLPDTKVSVFYGGVNIKIHKDLLKNECPHIVVGTPGRVLALAREKDLSLKNVRHFILDECDKMLESLDMRRDVQEIFKMTPHDKQVMMFSATLSKEIRPVCKKFMQDPMEIYVDDEAKLTLHGLVQHYIKLSEMEKNRKLNDLLDALDFNQVVIFVKSVSRAAELNKLLVECNFPSICIHSGMSQEERLTRYKSFKEGHKRILVATDLVGRGIDIERVNIVINYDMPDSADTYLHRVGRAGRFGTKGLAITFVASASDSEVLNQVQERFEVDIKELPEQIDTSTYMPS
B6: CLuc-SC35 (protein, UniProt Q9FMG4 1-303)
chain: MSHFGRSGPPDISDTYSLLVLNITFRTTADDLYPLFAKYGKVVDVFIPRDRRTGDSRGFAFVRYKYKDEAHKAVERLDGRVVDGREITVQFAKYGPNAEKISKGRVVEPPPKSRRSRSRSPRRSRSPRRSRSPPRRRSPRRSRSPRRRSRDDYREKDYRKRSRSRSYDRRERHEEKDRDHRRRTRSRSASPDEKRRVRGRYDNESRSHSRSLSASPARRSPRSSSPQKTSPAREVSPDKRSNERSPSPRRSLSPRSPALQKASPSKEMSPERRSNERSPSPGSPAPLRKVDAASRSQSPYAAE

Each binder was assayed against T1, EMB1579-NLuc (Arabidopsis thaliana) (assay: split reporter; firefly split luciferase complementation imaging; NLuc and CLuc fusions co-infiltrated by Agrobacterium into N. benthamiana leaves, 60 hours, 1 mM D-luciferin).

binding, binds:
B1
B2
B3
B4
B5
B6
